Experimental data taken from paper PMC9828152.
Substitutions are numbered along the chain they refer to. No constants are given. Whether binding was seen depends on the method and setting. In cells and extracts the contact can be indirect. Some entries that bind do so weakly or less than the wild type. For some of these results: Tags and fused reporters may be left off the sequences shown.

Amino acid sequences for entries named in this document (tags omitted). A change or cut given only in a name is not applied to a line headed by its entry.
UniProt P08047: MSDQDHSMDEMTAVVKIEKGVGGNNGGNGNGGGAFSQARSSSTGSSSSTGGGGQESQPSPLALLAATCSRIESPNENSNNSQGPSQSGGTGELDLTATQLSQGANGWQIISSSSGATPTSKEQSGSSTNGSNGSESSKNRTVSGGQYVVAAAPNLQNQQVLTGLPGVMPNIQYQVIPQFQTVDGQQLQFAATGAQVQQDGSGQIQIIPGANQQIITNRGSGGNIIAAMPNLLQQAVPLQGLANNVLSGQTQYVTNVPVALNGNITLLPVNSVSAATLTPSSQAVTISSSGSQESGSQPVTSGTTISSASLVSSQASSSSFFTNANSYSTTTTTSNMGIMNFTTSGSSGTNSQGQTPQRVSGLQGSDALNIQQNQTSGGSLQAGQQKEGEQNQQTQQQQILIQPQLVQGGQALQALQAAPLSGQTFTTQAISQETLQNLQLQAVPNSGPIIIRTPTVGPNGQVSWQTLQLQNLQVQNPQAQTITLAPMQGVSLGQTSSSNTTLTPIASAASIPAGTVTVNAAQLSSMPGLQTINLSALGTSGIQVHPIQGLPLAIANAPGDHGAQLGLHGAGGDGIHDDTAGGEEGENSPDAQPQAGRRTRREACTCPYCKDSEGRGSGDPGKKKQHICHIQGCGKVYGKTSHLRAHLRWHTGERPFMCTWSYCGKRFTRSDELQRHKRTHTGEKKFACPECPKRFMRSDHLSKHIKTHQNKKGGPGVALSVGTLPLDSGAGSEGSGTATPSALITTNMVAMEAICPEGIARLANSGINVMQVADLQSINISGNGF

How the values were obtained:
Ets1-Vc155 (human) = target: T1, Ets1-Vc155 (human) (UniProt P14921); assay: split reporter; BiFC; Vc155 and Vn173 fusions co-transfected into SW480 cells, 24 h, fluorescence microscopy
T1 sequence: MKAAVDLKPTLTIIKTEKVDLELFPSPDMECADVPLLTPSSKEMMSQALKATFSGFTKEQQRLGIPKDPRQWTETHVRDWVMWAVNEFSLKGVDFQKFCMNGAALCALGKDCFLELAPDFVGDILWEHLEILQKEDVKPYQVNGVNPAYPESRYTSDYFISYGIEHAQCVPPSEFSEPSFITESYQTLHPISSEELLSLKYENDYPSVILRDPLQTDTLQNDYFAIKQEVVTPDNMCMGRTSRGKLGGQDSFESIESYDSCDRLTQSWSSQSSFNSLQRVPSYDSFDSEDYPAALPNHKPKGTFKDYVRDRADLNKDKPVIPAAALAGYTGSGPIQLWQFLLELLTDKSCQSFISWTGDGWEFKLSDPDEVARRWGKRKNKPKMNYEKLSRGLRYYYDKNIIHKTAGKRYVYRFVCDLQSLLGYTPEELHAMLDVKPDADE

Ets1-Y283E-Vc155 (human) = target: T2, Ets1-Y283E-Vc155 (human) (UniProt P14921); assay: as above
T2 sequence: T1 sequence with Y283E

Ets1-Y283F-Vc155 (human) = target: T3, Ets1-Y283F-Vc155 (human) (UniProt P14921); assay: as above
T3 sequence: T1 sequence with Y283F

Ets1 WT-Flag (human) [1] = target: T4, Ets1 WT-Flag (human) (UniProt P14921); assay: co-IP; cells (SW480; for the two fragments also HEK293T) co-transfected with tagged Sp1 and Ets1 constructs, 24 h; anti-Flag magnetic beads; blot with anti-HA, anti-GST, anti-Flag or anti-Ets1
T4 sequence: T1 sequence

[2] = target: T5, Ets1(244-331)-Flag (human) (UniProt P14921); assay: as above
T5 sequence: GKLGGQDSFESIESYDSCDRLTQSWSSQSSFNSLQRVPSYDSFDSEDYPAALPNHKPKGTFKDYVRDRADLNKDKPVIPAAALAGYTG

[3] = target: T6, Ets1 Tyr283E-Flag (human) (UniProt P14921); assay: co-IP; anti-Flag immunoprecipitates of cells producing Flag-tagged Ets1 variants, blotted for Sp1; with or without 1 uM PP2 for 2.5 h before harvest
T6 sequence: T1 sequence with Y283E

[4] = target: T7, Ets1 Tyr283F-Flag (human) (UniProt P14921); assay: as above
T7 sequence: T1 sequence with Y283F

Ets1 WT-Flag (human) [5] = target: T4, Ets1 WT-Flag (human); assay: as above
[6] = target: T8, human E26 transcription factor 1 (Ets1), endogenous (human (endogenous in SW480, WM793, HEK293T)) (UniProt P14921); assay: co-IP; SW480 cells cotransfected with Sp1(626-708) and Ets1(244-331) expression vectors; immunoprecipitated with anti-Flag and anti-Ets1 antibodies; blot with anti-Flag, Ets1, Sp1 and P-Tyr antibodies
T8 sequence: T1 sequence

[7] = target: T8, human E26 transcription factor 1 (Ets1), endogenous (human (endogenous in SW480, WM793, HEK293T)); assay: co-IP; endogenous proteins; lysates of SW480, WM793 and HEK293T cells immunoprecipitated with anti-Ets1 antibody or control IgG, blotted with anti-Ets1 or anti-Sp1; SW480 lysates also with DNase I (1 unit/uL), or cells treated with dasatinib or PP2 (1, 5 or 10 uM) for 2.5 h

## Sp1-Vn173 (from UniProt P08047 1-785)
Ets1-Vc155 (human)
  binding: binds
Ets1-Y283E-Vc155 (human)
  binding: binds
Ets1-Y283F-Vc155 (human)
  binding: binds

## Sp1 (partner of the Flag-tagged Ets1 variants in Figure 3C) (from UniProt P08047 1-785)
Ets1 WT-Flag (human) [1]
  binding: binds

## Sp1(626-708)-HA (from UniProt P08047 626-708) (domain or fragment)
[2]
  binding: binds

## specific protein 1 (Sp1), endogenous (from UniProt P08047 1-785)
[3]
  binding: binds
[4]
  binding: binds
Ets1 WT-Flag (human) [5]
  binding: binds
[6]
  binding: binds
[7]
  binding: binds
